Experimental data reported in PubChem BioAssay AID540276 (National Center for Advancing Translational Sciences (NCATS), 2011).
Values joined by “and” are separate entries in the source; they are usually repeats but may differ in a detail not shown here. Equal entries are not always repeated. The whole screen tested about 300,000 compounds, of which about 5,400 (1.8%) were called active. The shares of active, inactive and inconclusive entries below differ from those in the screen. Calls come from the whole dose curve; tested in HEK293 cells. Potencies beside an inconclusive call are fits to weak or partial responses and may not hold up.
Potency is the fitted concentration of half-maximal effect.

Assay: qHTS for inhibitors of binding or entry into cells for Marburg Virus
Settings: Marburg virus pseudotyped entry inhibition, cell reporter; series mostly up to 37.8 µM
With C/C(=N\NC(=O)c1cccs1)c1ccc2c(c1)OCO2 the Potency was inconclusive: 5.62 µM [activator, single point]. With O=S(=O)(c1ccc2nc(-c3ccccc3)[nH]c2c1)N1CCN(c2ccc(Cl)cc2)CC1 the Potency was inconclusive: 29.1 µM [inhibitor, single point] and inconclusive: 10 µM [inhibitor, partial curve, poor fit]. With CCn1c(SCC(=O)Nc2nc(-c3ccccc3)cs2)nnc1-c1ccccc1O the Potency was inconclusive: 35.5 µM [inhibitor, single point]. For CCOc1ncccc1C(=O)NCCc1ccc(OC)cc1, the Potency was inconclusive: 6.31 µM [inhibitor, full curve, poor fit]. In the case of Cc1occc1C(=O)N/N=C/c1c(O)ccc2ccccc12, the Potency is reported as active: 3.55 µM. With Cc1ccc(CCNC(=O)Cn2ccc3cc(S(=O)(=O)N4CCCC4)ccc32)cc1 the Potency was inconclusive: 11.2 µM [inhibitor, partial curve, poor fit]. With CC(C)(C)c1ccc(OCCCNC2CCCC2)cc1 the Potency was active: 6.31 µM. With COc1cnn(-c2ccc(C)cc2)c(=O)c1SCc1ccccc1 the Potency was “inactive”. With Cc1noc(C)c1COc1ccccc1C(=O)N1CCN(S(=O)(=O)c2ccccc2C#N)CC1 the Potency was inconclusive: 1.41 µM [inhibitor, full curve]. For Cc1ccc(CS/C(Nc2ccccc2C)=C(\C#N)C(=O)NCc2ccco2)c(C)c1, the Potency was inconclusive: 23.1 µM [inhibitor, single point]. In the case of COc1ccc(CCNC(=O)c2ccc(=O)[nH]c2)cc1, the Potency is reported as “inactive”. In the case of Cc1csc(=O)n1CCC(=O)OCC(=O)Nc1ccc(C(N)=O)cc1, the Potency is reported as inconclusive: 6.31 µM [inhibitor, single point]. With CC(C)(C)c1ccc(NNC(=O)C2CCC2)cc1 the Potency was inconclusive: 6.31 µM [activator, partial curve, poor fit]. With COCc1nnc(NC(=O)c2cccc(NC(=O)c3ccccc3)c2)s1 the Potency was inconclusive: 35.5 µM [inhibitor, partial curve, poor fit]. With COc1ccc(C(=O)NCC(=O)Nc2ccc(-c3ccccc3)cc2)cc1 the Potency was inconclusive: 20 µM [inhibitor, single point]. For Cc1ccccc1NC(=O)Cc1nnc(SCC(=O)N2CCOCC2)n1C, the Potency was inconclusive: 25.1 µM [activator, single point]. For C[C@@H](C(=O)O)c1ccc(C[C@@H]2CCCC2=O)cc1, the Potency was “inactive”. For CS(=O)(=O)N1CCN(c2ccccc2NC(=O)c2cc3ccccc3o2)CC1, the Potency was inconclusive: 6.31 µM [inhibitor, single point]. For COc1ccc(Cl)cc1NC(=O)CN(C)C(=O)Cn1cnc2c1c(=O)n(C)c(=O)n2C, the Potency was “inactive”. In the case of COCCN1CCN(C(=O)c2ccc3nc(Cc4ccc(OC)c(OC)c4)oc3c2)CC1, the Potency is reported as inconclusive: 0.251 µM [inhibitor, full curve, poor fit]. For CCOc1ccc2nc(NS(=O)(=O)c3ccc(NC(C)=O)cc3)sc2c1, the Potency was “inactive”. With Cc1cc(Cl)ccc1OCCCC(=O)N1CCN(C(=O)c2ccco2)CC1 the Potency was inconclusive: 7.3 µM [inhibitor, partial curve, poor fit]. For CC(C)N1CCC(NC(=O)NC2CCCCC2)CC1, the Potency was inconclusive: 14.1 µM [activator, single point]. With C=CCc1ccc(OCC(O)CN2CCCCC2C)c(OC)c1 (stereo unspecified) the Potency was inconclusive: 35.5 µM [inhibitor, single point]. With CCOc1ccc(CCNC(=O)c2ccc3c(c2)N(Cc2ccc(F)cc2)CCS3)cc1 the Potency was “inactive”. For COc1ccccc1CNC(=O)CSc1nc(-c2ccc(OC)c(OC)c2)cc(C(F)(F)F)n1, the Potency was inconclusive: 35.5 µM [inhibitor, single point]. For COc1ccc2[nH]c(=O)c(CN(C3CCCCC3)C(c3nnnn3Cc3ccco3)C(C)C)cc2c1 (stereo unspecified), the Potency was inconclusive: 25.1 µM [inhibitor, single point]. In the case of Cc1cc(F)ccc1S(=O)(=O)N(C(=O)c1ccncc1)c1ccc(OC(=O)c2ccncc2)cc1, the Potency is reported as inconclusive: 35.5 µM [inhibitor, single point]. In the case of Cc1ccc(-n2nc3c(c2NC(=O)c2ccco2)CS(=O)(=O)C3)cc1C, the Potency is reported as “inactive”. In the case of O=C(CSc1nnc(C2COc3ccccc3O2)o1)Nc1nccs1 (stereo unspecified), the Potency is reported as inconclusive: 0.13 µM [activator, single point]. With CC(=O)c1nn(-c2ccc(Cl)cc2)cc1C(=O)c1ccccc1 the Potency was inconclusive: 3.55 µM [activator, single point]. For CCN(Cc1ccncc1)Cc1cn[nH]c1-c1ccc(OC)cc1F, the Potency was inconclusive: 29.1 µM [inhibitor, single point]. With N[C@H](C(=O)O)[C@H]1C[C@@H]1C(=O)O the Potency was inconclusive: 0.158 µM [inhibitor, full curve, poor fit]. With O=C(Nc1ccc(S(=O)(=O)N2CCCCC2)cc1)c1ccc(CN2CCc3ccccc3C2)cc1 the Potency was inconclusive: 0.708 µM [inhibitor, full curve, poor fit]. In the case of Nc1ncn(C(=S)Nc2ccccc2)n1, the Potency is reported as inconclusive: 1.58 µM [activator, partial curve, poor fit]. For O=C(CNCc1ccccc1)NC1C2CC3CC(C2)CC1C3 (stereo unspecified), the Potency was “inactive”. In the case of O=C(O)CCC1(CCC(=O)O)c2ccccc2-c2ccccc21, the Potency is reported as “inactive”. In the case of CCOC(=O)CNC(=O)c1cc2c(=O)oc3ccccc3c2s1, the Potency is reported as “inactive”. In the case of c1ccc(-c2nc3ccccn3c2NC2CCCC2)nc1, the Potency is reported as inconclusive: 20.6 µM [inhibitor, partial curve, poor fit]. In the case of CC(C)OC(=O)c1ccc(NC(=O)C2C3CC4OC(=O)C2C4C3)cc1 (stereo unspecified), the Potency is reported as inconclusive: 2.51 µM [activator, single point]. With CCOC(=O)C1CCN(C(=O)CN(c2ccc3c(c2)OCCO3)S(C)(=O)=O)CC1 the Potency was “inactive”. With CCCc1nnc(-c2cc(OC)c(OC)c(OC)c2)o1 the Potency was inconclusive: 25.9 µM [activator, single point]. For O=C(N/N=C/c1ccc([N+](=O)[O-])o1)C1CC1, the Potency was inconclusive: 29.1 µM [inhibitor, single point]. For CC1(C)SC(=S)N(/N=C/c2ccccc2)C1N(O)C(=O)Nc1ccc([N+](=O)[O-])cc1 (stereo unspecified), the Potency was active: 17.8 µM. For Clc1ccc(Cc2ccc(SCc3ccccc3)nn2)c(Cl)c1, the Potency was “inactive”. For CCOC(=O)c1sc2nc(CSc3ccccc3)nc(NCCN(C)C)c2c1C, the Potency was inconclusive: 12.6 µM [inhibitor, partial curve, poor fit]. In the case of Cn1c(CCNC(=O)c2ccccc2F)nnc1SCC(=O)Nc1nncs1, the Potency is reported as “inactive”. With CN1CCc2[nH]c3ccc(C(=O)NN)cc3c2C1 the Potency was “inactive”. For O=C(O)C(CCc1ccccc1)N1C(=O)c2ccccc2C1=O (stereo unspecified), the Potency was inconclusive: 6.31 µM [inhibitor, partial curve, poor fit]. In the case of Cc1ccc(NN2C(=O)C=C(c3ccccc3)C2=O)cc1, the Potency is reported as active: 11.2 µM. With CCc1ccccc1NC(=S)N1CCN(c2ccccn2)CC1 the Potency was “inactive”. For O=C(CC1Sc2ncnn2C1=O)Nc1ccccc1 (stereo unspecified), the Potency was “inactive”. In the case of O=S(=O)(c1cccc(-c2n[nH]c(=S)n2C2CCCC2)c1)N1CCOCC1, the Potency is reported as “inactive”. With Cc1ncsc1CCOC(=O)c1cccnc1 the Potency was “inactive”. For CCCCNC(=S)NNC(=O)c1cc(-c2ccncc2)nc2ccccc12, the Potency was “inactive”. In the case of CC(=O)c1sc(N/N=C/c2cccc([N+](=O)[O-])c2)nc1C, the Potency is reported as inconclusive: 7.94 µM [activator, partial curve]. For CCOC(=O)c1cc(CC)sc1NC(=O)CC1Sc2ccc(C(F)(F)F)cc2NC1=O (stereo unspecified), the Potency was inconclusive: 3.98 µM [inhibitor, single point]. With CCCN(CC(=O)Nc1cc(Cl)ccc1Cl)C(=O)c1ccccc1SCC(=O)N1CCCC1 the Potency was “inactive”. With Cc1ccccc1Cn1nc(C)c(NC(=O)c2noc3c2CCc2ccccc2-3)c1C the Potency was “inactive”. With C=CCn1c(SCC(=O)NC(=O)c2cccn2C)nc2ccccc2c1=O the Potency was “inactive”. For COc1ccc(N2CCN(C(=O)c3cc4c(=O)oc5ccc(C)cc5c4s3)CC2)cc1, the Potency was inconclusive: 7.08 µM [activator, partial curve, poor fit]. In the case of CCCc1ccc(OCc2ccc(C(=O)N3CCSCC3)o2)cc1, the Potency is reported as inconclusive: 35.5 µM [inhibitor, single point]. In the case of CCCC(=O)Nc1cc(C)cn(Cc2c(F)cccc2Cl)c1=O, the Potency is reported as inconclusive: 3.55 µM [activator, single point]. In the case of O=C(Nc1ccc2ccccc2c1)c1cccc([N+](=O)[O-])c1, the Potency is reported as inconclusive: 1.12 µM [activator, full curve, poor fit]. For CN(CC1CCOCC1)C(=O)CC1C(=O)NCCN1Cc1ccccc1F (stereo unspecified), the Potency was inconclusive: 35.5 µM [activator, single point]. In the case of FC(F)(F)c1cc(-c2ccc3c(c2)OCO3)nc(NCc2ccco2)n1, the Potency is reported as inconclusive: 0.206 µM [inhibitor, single point]. With Cc1cc(NC(=O)COc2ccccc2C)ccc1NC(=O)c1ccco1 the Potency was inconclusive: 2.82 µM [inhibitor, full curve, poor fit]. In the case of O=[N+]([O-])c1ccc(Nc2nc(N/N=C/c3cccc(F)c3)nc(N3CCCC3)n2)cc1, the Potency is reported as inconclusive: 7.08 µM [inhibitor, full curve]. For Cc1ccc(C)n1-c1ccc(N2CCOCC2)nc1, the Potency was inconclusive: 29.1 µM [inhibitor, single point]. For CCC(Oc1nc2ccccc2nc1-c1ccccc1NC(C)=O)C(=O)c1ccccc1 (stereo unspecified), the Potency was “inactive”. In the case of COc1cc(NC(=O)Nc2ccc3c(c2)OCO3)cc(OC)c1OC, the Potency is reported as “inactive”.
